Reference: US20230131376A1, “ADJUVANT-ANTIBIOTIC COMBINATION AGAINST GRAM-NEGATIVE BACTERIA” (University of Notre Dame du Lac, priority 2020, published 2023)
Some results were stated once for a whole list of compounds, not compound by compound.

Test system: red blood cells
Test: Hemolysis assay
Assay type: cell-based, sheep
Details: 200 μM
Description: Hemolysis assay. Hemolysis assays were performed on mechanically defibrinated sheep blood (Hemostat Labs: DSB30). Defibrinated blood (1.5 mL) was placed into a microcentrifuge tube and centrifuged for 10 min at 10,000 rpm. The supernatant was then removed, and the cells were resuspended in 1 mL of phosphate-buffered saline (PBS). The suspension was centrifuged, the supernatant was removed, and cells were resuspended two additional times. The final cell suspension was then diluted 10-fold. Test compound solutions were made in PBS in small culture tubes and then added to aliquots of the 10-fold suspension dilution of blood. PBS was used as a negative control and a zero hemolysis marker. Triton X (a 1% sample) was used as a positive control serving as the 100% lysis marker. Samples were then placed in an incubator at 37° C. while being shaken at 200 rpm for one hour. After one hour, the samples were transferred to microcentrifuge tubes and centrifuged for 10 min at 10,000 rpm. The resulting supernatant was diluted by a factor of 40 in distilled water. The absorbance of the supernatant was then measured with a UV spectrometer at a 540 nm wavelength.

| Structure (SMILES) | cell lysis of red blood cells [%] |
| --- | --- |
| CCCCc1ccc(NC(=O)NCCc2c[nH]c3ccc(Br)cc23)cc1 [Compound 9a, 1-(2-(5-bromo-1H-indol-3-yl)ethyl)-3-(4-butylphenyl)urea] | < 2.5 |
| O=C(NCCc1c[nH]c2ccc(Br)cc12)Nc1cc(Cl)c(Br)c(Cl)c1 [Compound 9e, 1-(2-(5-bromo-1H-indol-3-yl)ethyl)-3-(4-bromo-3,5-dichlorophenyl)urea] | < 2.5 |
